This is one part of the list.
Each sequence was assayed against T1, OsSMF1 (Oryza sativa, UniProt Q6ZLB0 1-436) (assay: protein-binding microarray (RPBM); PBS, 2% BSA, 51.3 ng/ul salmon testes DNA, 50 uM zinc acetate, 200 nM TF, 25 C, 1 h; high values mean tight binding). Settings: protein: recombinant; tags: N-terminal polyhistidine and DsRed monomer fusion (pET32a); chain copies: 2; label: CyDye5-dUTP incorporated in the synthesized complementary strand; 3' TTTTT single-stranded linker to array surface; dsDNA, one strand shown.
T1 sequence: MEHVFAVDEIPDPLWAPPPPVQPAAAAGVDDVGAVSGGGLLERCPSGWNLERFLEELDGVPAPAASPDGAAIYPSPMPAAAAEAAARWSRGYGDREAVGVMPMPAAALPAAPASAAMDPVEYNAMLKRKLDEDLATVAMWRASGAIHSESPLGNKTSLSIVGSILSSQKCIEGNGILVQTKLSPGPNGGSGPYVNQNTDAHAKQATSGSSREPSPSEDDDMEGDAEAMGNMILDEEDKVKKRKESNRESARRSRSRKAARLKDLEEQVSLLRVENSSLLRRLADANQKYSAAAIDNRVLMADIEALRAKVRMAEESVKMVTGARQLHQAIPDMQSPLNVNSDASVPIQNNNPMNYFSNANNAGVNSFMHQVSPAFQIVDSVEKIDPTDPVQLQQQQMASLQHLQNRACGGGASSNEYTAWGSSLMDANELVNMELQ
In short: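 Per-feature fluorescence intensity (arbitrary units), read on an Axon 4000B scanner, is the binding signal. Transcription factors carrying an N-terminal polyhistidine tag and DsRed fusion were expressed in E. coli BL21-CodonPlus and purified on Ni–NTA. A custom Agilent array, made double-stranded by primer extension with Cy5-dUTP and blocked with 2% BSA, was incubated with 200 nM protein in PBS, 2% BSA, salmon testes DNA and 50 µM zinc acetate at 25 °C for 1 h and then washed.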

| Sequence | binding signal |
| --- | --- |
| TTCAGAATCAAACCTCATTTCCCATGCATAAAGTAGTATGCGGAGTCACCTAGTGCAG | 20700 fluorescence intensity (a.u.) |
| GTATTGTAGCTGACTATATATCTGTAGCCCCGCTATTCTTCGGAGTCACCTAGTGCAG | 3830 fluorescence intensity (a.u.) |
| ATTTCCATCCATGATTGACGCCCTTCCTAAAACCAAGTTGCGGAGTCACCTAGTGCAG | 3350 fluorescence intensity (a.u.) |
| GTTATGGATGCCTCATTACGTGTAGCCACCAAACCCAAAGCGGAGTCACCTAGTGCAG | 4970 fluorescence intensity (a.u.) |
| GGCTTCTGCCGTGTCTGGACACGATGGGCCTCCCCTGCATCGGAGTCACCTAGTGCAG | 3420 fluorescence intensity (a.u.) |
| AGACCTTCCCCGCGGTGACGCGTGCGTCGTCAGCCGGCGACGGAGTCACCTAGTGCAG | 8160 fluorescence intensity (a.u.) |
| GCTGCATGTTGGAAGAGTTTGTTGACGTGGATATATATCTCGGAGTCACCTAGTGCAG | 11400 fluorescence intensity (a.u.) |
| TCCTATACGCGTAGAGTACACGGTGCAGTGTATAGTACATCGGAGTCACCTAGTGCAG | 3180 fluorescence intensity (a.u.) |
| TGAAGGACTTACAAATGATCACAGGGTCATGGGTGTTGTACGGAGTCACCTAGTGCAG | 3240 fluorescence intensity (a.u.) |
| AATGCCAAGTGGCAGCCTATGAGCGTTTGTAGCATGCCATCGGAGTCACCTAGTGCAG | 41200 fluorescence intensity (a.u.) |
| TGCACTGTGTTTAAGTTATAAAATACTCCTACATCTTTATCGGAGTCACCTAGTGCAG | 28100 fluorescence intensity (a.u.) |
| GGTAGAGAAGACGAGGAGTAGGAGGGGTGGTTGGTGCCGACGGAGTCACCTAGTGCAG | 3550 fluorescence intensity (a.u.) |
| CCGGTACTTTGGTACGTCATCCGTGCATGAGTTGGTTTTCCGGAGTCACCTAGTGCAG | 7210 fluorescence intensity (a.u.) |
| GACACCAGTAAACCACCCTCTCCCACTGACACCTCGGCCCCGGAGTCACCTAGTGCAG | 3300 fluorescence intensity (a.u.) |
| GGCCTCTTCGTGGTCTCGGTTCACAGTCACTGGCCACTGGCGGAGTCACCTAGTGCAG | 3580 fluorescence intensity (a.u.) |
| TAAGCACCCGAGTTGATCCCCATGAGACGTGGCGACTCGGCGGAGTCACCTAGTGCAG | 3530 fluorescence intensity (a.u.) |
| CTGAGGTGGGCCCACGTGACAGTCTCACAGCCCACTCCCCCGGAGTCACCTAGTGCAG | 3390 fluorescence intensity (a.u.) |
| GTTCTCGTGGGCCCCACCCCGCGCCGAGAGGCTGCAGCAGCGGAGTCACCTAGTGCAG | 15900 fluorescence intensity (a.u.) |
| TAGTGGCTACACTCTTGAGCTGGTAGTACAGTATCTACTACGGAGTCACCTAGTGCAG | 3290 fluorescence intensity (a.u.) |
| ACTGTCCGCATCCTCGTTGCCGCCGTCGTGGCACATCGCGCGGAGTCACCTAGTGCAG | 7390 fluorescence intensity (a.u.) |
| ACAGCGGAGAATAAGTTTGTTGACCCTGATCTACTTGATACGGAGTCACCTAGTGCAG | 17500 fluorescence intensity (a.u.) |
| ATGGAGGTATTGTGCCAGAGTGCATGCTGACCACGGCAACCGGAGTCACCTAGTGCAG | 4060 fluorescence intensity (a.u.) |
| GCGTGTTGAGTCGGATCGAGGTTTGCGTTTGTGTTCGTTTCGGAGTCACCTAGTGCAG | 3510 fluorescence intensity (a.u.) |
| TTGTGTGTGCGTTTGTGATTGCGTCGGTCGGTTTCAGTTCCGGAGTCACCTAGTGCAG | 4960 fluorescence intensity (a.u.) |
| TTGTCCCTTTCATCATCACGCATTGTTATGCTATTGCTGCCGGAGTCACCTAGTGCAG | 3200 fluorescence intensity (a.u.) |
| GCTGTCGTACTCTTTCGTAATGTCGTTGCTTACGGAGTACCGGAGTCACCTAGTGCAG | 3230 fluorescence intensity (a.u.) |
| ACAGCAGTACCGCTACCATTAGAACAGCCACGTATATGAACGGAGTCACCTAGTGCAG | 6090 fluorescence intensity (a.u.) |

| Sequence | binding signal |
| --- | --- |
| CAGATTGTCAAGACACCTATGGTGCCCGGCAAATTCCTCCCGGAGTCACCTAGTGCAG | 4360 fluorescence intensity (a.u.) |
| GAGGCTCGGCGACGGCCGGTGGGCGAGGAGCAGCGGCGGGCGGAGTCACCTAGTGCAG | 26600 fluorescence intensity (a.u.) |
| CGTTGCCGACGCGTGTGTTTGCTGAGACGCCATTGTCACACGGAGTCACCTAGTGCAG | 4730 fluorescence intensity (a.u.) |
| TTGGTTCTTATGCTGAATCATCGTGTGCTGCACTTGTTGTCGGAGTCACCTAGTGCAG | 3270 fluorescence intensity (a.u.) |
| ACAGACCGCTTCTGTCACCTGCCTGCACAAAGGGGATTGGCGGAGTCACCTAGTGCAG | 4290 fluorescence intensity (a.u.) |
| TGATGCACGGTGGGCCTCTGGTTGCTCGGCCCAGTAAAACCGGAGTCACCTAGTGCAG | 3310 fluorescence intensity (a.u.) |
| CAATCGCGGCGTCGGCGTGCCGTCGCTTGGGGTGGTGTTGCGGAGTCACCTAGTGCAG | 38600 fluorescence intensity (a.u.) |
| CCGGTTTGCTGCTCGGAGATGACGAGGGGCATGAGCTATGCGGAGTCACCTAGTGCAG | 5600 fluorescence intensity (a.u.) |
| TCTTTCTGTACTCCTTTTGATAATCTGATGAAGCTCTGCTCGGAGTCACCTAGTGCAG | 3650 fluorescence intensity (a.u.) |
| TAAATTCACACACGCCCCACCTCGTCACTCGTCTCGTCTCCGGAGTCACCTAGTGCAG | 6040 fluorescence intensity (a.u.) |
| CAGAATTGAAGAACTCAGGGAGCGTGTGGAGTGCAATATCCGGAGTCACCTAGTGCAG | 3390 fluorescence intensity (a.u.) |
| ATTATCCCTGACAGGTGGGCTCCACGTGTCAGCGACTGTTCGGAGTCACCTAGTGCAG | 29900 fluorescence intensity (a.u.) |
| TGGGATTCGGTGACATCAAATGAGAATGTCACGGGAGAATCGGAGTCACCTAGTGCAG | 3590 fluorescence intensity (a.u.) |
| GTACATCAAACATTATCAATATCGGACACATAATCCATTGCGGAGTCACCTAGTGCAG | 3850 fluorescence intensity (a.u.) |
| TGGCATTGACGTGGCGCTTACGTGGCATTATATCTTGAAACGGAGTCACCTAGTGCAG | 33400 fluorescence intensity (a.u.) |
| CCGCGGCACGCAGGCGTACGTCAACGGCGACGTGTACGACCGGAGTCACCTAGTGCAG | 3620 fluorescence intensity (a.u.) |
| TTAGCCTGTATTTTCCTAACATTGCTACTAATATTGGATGCGGAGTCACCTAGTGCAG | 12400 fluorescence intensity (a.u.) |
| AAATTATGAGCGTATTGGGGATTGTACACAGGATCTCAGGCGGAGTCACCTAGTGCAG | 4280 fluorescence intensity (a.u.) |
| TGTGGGTCTGTTCAGATTCATTATATTAGAACGCGTCACGCGGAGTCACCTAGTGCAG | 6250 fluorescence intensity (a.u.) |
| TCCTTGTCGCGCTGCCATCGCCACCCAATGCCATCGAGCTCGGAGTCACCTAGTGCAG | 49600 fluorescence intensity (a.u.) |
| CATCTCACATTTGGTGGAGGAGGTGGCATCCTCACCTGCTCGGAGTCACCTAGTGCAG | 3830 fluorescence intensity (a.u.) |
| GGCTAGCCGGCCCGGGTTCGAGACTCAGTGACTCACTCATCGGAGTCACCTAGTGCAG | 8170 fluorescence intensity (a.u.) |
| CTCGGACCAGTGACATGATCATGAGCTGGCAATACCGATGCGGAGTCACCTAGTGCAG | 33400 fluorescence intensity (a.u.) |
| GCATGCGGGATAGGAGCTTGACTAGCATGACGAGGCAGAACGGAGTCACCTAGTGCAG | 5890 fluorescence intensity (a.u.) |
| CAGCAGTTTGCTCACCCGAGCAACCTGTAGGTCATCATGTCGGAGTCACCTAGTGCAG | 4600 fluorescence intensity (a.u.) |
| ATGCATGGCTACCATGGCTGCATATTCCTTTCACGATTACCGGAGTCACCTAGTGCAG | 3330 fluorescence intensity (a.u.) |
| CCGCATCGGATCCCCATCTCCCGATCCCACACGGTCACACCGGAGTCACCTAGTGCAG | 3240 fluorescence intensity (a.u.) |

Taken from the entries so far (4 entries):

| Sequence | binding signal |
| --- | --- |
| GTACATCAAACATTATCAATATCGGACACATAATCCATTGCGGAGTCACCTAGTGCAG | 3850 fluorescence intensity (a.u.) |
| TGGCATTGACGTGGCGCTTACGTGGCATTATATCTTGAAACGGAGTCACCTAGTGCAG | 33400 fluorescence intensity (a.u.) |
| CCGCGGCACGCAGGCGTACGTCAACGGCGACGTGTACGACCGGAGTCACCTAGTGCAG | 3620 fluorescence intensity (a.u.) |
| TTAGCCTGTATTTTCCTAACATTGCTACTAATATTGGATGCGGAGTCACCTAGTGCAG | 12400 fluorescence intensity (a.u.) |

Reference: article PMC7819943, “Rice protein-binding microarrays: a tool to detect cis-acting elements near promoter regions in rice”
